Test results published in article doi:10.1101/2025.03.06.641037.

The chains behind the UniProt entries cited, without tags or fusion partners.
UniProt Q9UER7: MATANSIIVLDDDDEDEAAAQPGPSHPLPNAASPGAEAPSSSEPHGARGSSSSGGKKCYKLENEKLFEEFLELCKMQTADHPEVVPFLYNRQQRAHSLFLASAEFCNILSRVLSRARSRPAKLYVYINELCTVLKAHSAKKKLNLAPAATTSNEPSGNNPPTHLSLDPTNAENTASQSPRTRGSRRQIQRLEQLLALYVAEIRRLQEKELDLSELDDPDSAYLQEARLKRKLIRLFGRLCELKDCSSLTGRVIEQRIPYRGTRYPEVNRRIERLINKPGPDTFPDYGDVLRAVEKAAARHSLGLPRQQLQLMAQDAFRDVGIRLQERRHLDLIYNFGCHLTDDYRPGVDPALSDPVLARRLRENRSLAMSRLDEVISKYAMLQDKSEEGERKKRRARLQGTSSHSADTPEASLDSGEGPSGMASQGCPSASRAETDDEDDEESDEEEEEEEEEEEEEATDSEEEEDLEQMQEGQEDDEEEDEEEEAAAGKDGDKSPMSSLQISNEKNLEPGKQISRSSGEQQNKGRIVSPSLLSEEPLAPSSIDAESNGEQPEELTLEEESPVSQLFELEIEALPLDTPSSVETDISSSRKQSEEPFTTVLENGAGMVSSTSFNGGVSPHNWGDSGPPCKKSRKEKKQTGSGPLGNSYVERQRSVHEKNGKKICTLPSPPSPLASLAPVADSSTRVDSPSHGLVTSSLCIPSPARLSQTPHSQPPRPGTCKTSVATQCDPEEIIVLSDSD
UniProt Q9UKL0: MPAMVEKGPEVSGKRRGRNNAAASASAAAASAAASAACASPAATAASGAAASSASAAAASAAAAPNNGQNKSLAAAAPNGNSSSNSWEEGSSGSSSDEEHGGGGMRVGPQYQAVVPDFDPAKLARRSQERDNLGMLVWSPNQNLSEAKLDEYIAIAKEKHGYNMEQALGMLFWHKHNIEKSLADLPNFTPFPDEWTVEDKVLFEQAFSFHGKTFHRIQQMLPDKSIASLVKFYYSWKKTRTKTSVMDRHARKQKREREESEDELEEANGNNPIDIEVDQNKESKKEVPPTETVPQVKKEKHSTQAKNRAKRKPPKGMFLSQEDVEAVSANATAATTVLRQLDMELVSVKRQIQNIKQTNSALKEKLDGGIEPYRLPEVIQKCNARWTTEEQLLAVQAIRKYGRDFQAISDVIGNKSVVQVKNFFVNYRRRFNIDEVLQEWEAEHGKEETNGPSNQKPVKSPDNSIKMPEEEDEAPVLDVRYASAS
UniProt P78347: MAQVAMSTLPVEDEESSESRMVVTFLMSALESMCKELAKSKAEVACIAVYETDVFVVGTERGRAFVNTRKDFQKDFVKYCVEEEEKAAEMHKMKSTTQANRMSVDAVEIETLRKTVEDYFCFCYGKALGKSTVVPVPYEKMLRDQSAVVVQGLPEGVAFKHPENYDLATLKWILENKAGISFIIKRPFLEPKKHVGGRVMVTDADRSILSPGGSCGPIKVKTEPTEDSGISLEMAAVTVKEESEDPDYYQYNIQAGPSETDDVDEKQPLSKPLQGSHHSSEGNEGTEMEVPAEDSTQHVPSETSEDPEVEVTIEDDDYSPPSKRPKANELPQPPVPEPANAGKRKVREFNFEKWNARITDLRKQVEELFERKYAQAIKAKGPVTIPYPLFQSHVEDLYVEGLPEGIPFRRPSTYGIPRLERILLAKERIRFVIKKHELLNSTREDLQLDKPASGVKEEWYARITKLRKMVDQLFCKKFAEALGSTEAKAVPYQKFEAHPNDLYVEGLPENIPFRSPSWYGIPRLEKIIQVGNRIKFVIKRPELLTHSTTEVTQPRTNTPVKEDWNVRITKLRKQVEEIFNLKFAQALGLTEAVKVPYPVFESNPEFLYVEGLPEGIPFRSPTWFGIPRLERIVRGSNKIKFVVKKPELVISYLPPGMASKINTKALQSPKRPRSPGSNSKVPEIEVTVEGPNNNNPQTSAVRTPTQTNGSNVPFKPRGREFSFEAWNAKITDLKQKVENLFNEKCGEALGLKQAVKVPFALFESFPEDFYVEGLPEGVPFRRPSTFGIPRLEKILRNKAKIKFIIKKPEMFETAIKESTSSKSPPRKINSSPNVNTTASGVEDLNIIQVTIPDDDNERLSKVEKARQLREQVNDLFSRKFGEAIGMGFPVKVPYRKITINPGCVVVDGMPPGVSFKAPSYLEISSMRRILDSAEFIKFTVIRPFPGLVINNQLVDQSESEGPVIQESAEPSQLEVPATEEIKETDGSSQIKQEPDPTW
UniProt Q13185: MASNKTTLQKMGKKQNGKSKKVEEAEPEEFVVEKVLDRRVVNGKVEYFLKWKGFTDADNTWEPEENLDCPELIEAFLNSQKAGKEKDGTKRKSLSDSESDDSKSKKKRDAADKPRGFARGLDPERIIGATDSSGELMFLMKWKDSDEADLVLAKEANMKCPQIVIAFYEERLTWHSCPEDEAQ
UniProt Q96KQ7: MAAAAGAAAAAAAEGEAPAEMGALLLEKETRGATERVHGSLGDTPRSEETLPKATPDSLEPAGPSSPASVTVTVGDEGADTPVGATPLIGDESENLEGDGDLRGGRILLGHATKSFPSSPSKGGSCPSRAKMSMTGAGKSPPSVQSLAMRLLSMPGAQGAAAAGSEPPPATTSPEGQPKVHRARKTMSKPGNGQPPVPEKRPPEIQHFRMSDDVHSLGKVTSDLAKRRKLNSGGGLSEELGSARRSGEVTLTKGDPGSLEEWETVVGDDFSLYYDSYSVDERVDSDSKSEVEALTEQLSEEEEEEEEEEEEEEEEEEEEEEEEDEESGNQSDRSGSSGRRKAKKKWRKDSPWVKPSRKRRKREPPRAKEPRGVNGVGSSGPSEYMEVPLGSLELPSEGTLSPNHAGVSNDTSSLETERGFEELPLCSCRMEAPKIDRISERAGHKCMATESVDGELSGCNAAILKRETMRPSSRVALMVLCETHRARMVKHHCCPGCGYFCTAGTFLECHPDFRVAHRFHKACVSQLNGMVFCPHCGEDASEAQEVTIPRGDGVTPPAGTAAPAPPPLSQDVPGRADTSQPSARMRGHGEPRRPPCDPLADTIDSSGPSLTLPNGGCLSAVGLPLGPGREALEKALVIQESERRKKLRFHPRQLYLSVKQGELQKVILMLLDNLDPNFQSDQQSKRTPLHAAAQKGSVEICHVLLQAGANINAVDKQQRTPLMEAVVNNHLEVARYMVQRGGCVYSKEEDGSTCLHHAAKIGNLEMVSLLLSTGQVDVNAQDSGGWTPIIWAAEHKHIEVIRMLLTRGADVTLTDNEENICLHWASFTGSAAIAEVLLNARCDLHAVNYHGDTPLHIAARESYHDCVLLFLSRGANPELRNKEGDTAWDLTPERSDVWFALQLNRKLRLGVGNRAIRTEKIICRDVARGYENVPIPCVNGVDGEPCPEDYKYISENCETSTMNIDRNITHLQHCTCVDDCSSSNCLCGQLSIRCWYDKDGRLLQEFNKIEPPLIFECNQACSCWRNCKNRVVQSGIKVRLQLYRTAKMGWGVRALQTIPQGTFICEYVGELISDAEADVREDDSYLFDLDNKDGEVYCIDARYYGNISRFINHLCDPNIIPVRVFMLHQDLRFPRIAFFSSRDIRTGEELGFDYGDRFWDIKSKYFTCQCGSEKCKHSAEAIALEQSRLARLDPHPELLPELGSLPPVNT
UniProt Q9H9B1: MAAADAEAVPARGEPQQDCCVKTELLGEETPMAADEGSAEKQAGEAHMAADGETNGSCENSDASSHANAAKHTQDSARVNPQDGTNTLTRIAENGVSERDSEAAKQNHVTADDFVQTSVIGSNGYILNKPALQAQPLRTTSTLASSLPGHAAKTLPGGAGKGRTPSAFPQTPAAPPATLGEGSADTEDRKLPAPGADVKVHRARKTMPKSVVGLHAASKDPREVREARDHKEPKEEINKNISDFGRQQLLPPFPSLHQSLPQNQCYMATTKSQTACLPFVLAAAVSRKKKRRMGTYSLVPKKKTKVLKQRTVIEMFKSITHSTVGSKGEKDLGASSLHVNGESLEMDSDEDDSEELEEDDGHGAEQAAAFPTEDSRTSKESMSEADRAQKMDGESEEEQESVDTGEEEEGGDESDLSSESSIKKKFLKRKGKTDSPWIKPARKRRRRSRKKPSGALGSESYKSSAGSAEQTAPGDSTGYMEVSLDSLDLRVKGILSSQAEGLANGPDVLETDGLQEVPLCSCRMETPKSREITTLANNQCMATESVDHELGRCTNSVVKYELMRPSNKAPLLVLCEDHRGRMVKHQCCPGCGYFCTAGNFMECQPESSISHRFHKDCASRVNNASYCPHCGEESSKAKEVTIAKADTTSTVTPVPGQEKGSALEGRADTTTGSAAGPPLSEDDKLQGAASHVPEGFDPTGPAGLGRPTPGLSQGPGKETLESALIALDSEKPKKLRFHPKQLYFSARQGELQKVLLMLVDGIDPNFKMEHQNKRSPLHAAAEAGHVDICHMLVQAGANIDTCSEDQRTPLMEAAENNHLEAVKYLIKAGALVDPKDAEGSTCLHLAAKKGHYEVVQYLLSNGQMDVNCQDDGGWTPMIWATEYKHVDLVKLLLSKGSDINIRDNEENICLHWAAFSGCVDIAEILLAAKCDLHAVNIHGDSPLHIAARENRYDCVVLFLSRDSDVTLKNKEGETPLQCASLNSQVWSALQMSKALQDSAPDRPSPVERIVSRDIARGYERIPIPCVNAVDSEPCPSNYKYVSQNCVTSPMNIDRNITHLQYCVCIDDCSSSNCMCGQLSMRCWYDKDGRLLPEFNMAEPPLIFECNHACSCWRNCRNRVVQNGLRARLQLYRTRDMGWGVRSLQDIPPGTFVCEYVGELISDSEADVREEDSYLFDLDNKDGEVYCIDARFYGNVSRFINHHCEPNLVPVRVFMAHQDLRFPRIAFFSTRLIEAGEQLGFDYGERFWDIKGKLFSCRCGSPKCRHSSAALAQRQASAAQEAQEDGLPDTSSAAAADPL
UniProt Q5VZL5: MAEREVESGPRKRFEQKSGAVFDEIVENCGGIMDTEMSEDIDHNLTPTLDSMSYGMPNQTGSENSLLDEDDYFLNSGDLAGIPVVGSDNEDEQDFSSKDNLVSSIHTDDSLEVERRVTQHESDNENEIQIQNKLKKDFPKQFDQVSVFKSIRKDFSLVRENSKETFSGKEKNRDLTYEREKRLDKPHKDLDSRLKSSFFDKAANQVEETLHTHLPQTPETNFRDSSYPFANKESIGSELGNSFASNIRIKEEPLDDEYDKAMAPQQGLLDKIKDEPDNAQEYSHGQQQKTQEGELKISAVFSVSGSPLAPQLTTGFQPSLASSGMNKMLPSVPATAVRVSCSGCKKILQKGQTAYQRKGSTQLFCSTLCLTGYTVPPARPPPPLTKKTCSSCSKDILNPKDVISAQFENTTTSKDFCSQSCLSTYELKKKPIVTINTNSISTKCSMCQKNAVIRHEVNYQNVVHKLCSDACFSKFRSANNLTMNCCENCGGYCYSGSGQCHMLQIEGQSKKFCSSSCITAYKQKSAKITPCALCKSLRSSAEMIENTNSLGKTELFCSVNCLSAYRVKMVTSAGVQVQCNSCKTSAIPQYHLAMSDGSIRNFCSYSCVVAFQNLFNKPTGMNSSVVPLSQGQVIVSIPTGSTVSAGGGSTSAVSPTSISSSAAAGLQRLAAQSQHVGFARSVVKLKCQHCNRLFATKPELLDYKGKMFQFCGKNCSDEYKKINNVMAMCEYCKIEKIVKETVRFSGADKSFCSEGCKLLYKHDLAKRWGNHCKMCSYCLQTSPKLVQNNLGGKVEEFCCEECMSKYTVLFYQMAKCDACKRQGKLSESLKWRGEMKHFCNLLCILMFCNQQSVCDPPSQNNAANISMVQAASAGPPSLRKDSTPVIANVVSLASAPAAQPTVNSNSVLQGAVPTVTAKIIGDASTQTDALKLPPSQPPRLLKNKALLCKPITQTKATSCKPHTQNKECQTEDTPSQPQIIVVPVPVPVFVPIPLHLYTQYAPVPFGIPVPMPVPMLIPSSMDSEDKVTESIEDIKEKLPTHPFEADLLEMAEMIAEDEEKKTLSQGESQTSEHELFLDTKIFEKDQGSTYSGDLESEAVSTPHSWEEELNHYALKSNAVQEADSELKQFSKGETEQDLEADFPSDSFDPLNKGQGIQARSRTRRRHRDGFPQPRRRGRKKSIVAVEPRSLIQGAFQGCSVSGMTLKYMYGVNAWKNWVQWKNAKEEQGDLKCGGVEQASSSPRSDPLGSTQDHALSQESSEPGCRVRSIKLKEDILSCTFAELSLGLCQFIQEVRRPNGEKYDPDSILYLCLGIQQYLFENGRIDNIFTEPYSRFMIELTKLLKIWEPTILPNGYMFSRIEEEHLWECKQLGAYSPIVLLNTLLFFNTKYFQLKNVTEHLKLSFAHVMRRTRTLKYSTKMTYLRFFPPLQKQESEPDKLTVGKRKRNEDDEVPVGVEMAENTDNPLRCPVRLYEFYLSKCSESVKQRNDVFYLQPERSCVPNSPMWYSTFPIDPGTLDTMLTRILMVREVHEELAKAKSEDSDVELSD

T1: F2V5-ADNP (Activity-Dependent Neuroprotective Protein, endogenously tagged) (human (endogenous in H9-derived hNSCs)) (UniProt Q9H2P0)
T1 sequence: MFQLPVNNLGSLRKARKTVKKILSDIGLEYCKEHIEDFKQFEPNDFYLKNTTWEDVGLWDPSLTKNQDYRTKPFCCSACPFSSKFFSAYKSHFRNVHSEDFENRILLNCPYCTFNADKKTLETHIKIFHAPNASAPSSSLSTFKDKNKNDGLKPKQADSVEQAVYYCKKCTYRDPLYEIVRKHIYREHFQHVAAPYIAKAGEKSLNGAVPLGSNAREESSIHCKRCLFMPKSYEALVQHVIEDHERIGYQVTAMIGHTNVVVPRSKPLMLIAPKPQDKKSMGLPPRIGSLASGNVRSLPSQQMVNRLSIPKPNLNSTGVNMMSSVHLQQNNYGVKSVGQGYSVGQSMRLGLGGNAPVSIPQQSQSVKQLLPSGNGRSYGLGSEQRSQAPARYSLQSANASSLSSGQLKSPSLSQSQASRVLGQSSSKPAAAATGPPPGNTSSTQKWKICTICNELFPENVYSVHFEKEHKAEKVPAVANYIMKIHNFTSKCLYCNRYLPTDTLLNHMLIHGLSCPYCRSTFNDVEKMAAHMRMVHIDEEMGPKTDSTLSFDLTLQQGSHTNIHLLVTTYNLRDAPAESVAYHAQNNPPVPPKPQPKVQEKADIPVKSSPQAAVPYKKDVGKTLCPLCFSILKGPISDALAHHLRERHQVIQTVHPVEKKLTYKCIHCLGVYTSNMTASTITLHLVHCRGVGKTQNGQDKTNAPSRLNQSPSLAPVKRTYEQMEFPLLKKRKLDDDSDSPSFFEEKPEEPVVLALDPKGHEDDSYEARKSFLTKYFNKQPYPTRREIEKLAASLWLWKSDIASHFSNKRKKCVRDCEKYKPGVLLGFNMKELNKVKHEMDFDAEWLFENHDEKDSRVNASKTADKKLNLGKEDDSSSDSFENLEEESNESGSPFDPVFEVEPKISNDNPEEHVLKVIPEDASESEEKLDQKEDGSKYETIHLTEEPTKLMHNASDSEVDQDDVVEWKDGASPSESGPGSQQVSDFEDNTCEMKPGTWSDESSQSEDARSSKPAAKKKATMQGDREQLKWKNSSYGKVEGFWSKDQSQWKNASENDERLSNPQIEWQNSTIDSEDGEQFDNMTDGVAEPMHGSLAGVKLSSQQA


Target: T1, F2V5-ADNP (Activity-Dependent Neuroprotective Protein, endogenously tagged) (human (endogenous in H9-derived hNSCs))
Assay: affinity purification with mass spectrometry

Row | Molecule | binding
1 | DAXX (from UniProt Q9UER7 1-740) | binds
2 | RCOR1 (from UniProt Q9UKL0 1-485) | binds
3 | GTF2I (from UniProt P78347 1-998) | binds
4 | HP1γ (from UniProt Q13185 1-183) | binds
5 | ATRX (from UniProt P46100 1-2492) | binds
6 | EHMT2 (from UniProt Q96KQ7 1-1210) | binds
7 | TEX10 (protein, UniProt Q9NXF1 1-929) MTKKRKRQHDFQKVKLKVGKKKPKLQNATPTNFKTKTIHLPEQLKEDGTLPTNNRKLNIKDLLSQMHHYNAGVKQSALLGLKDLLSQYPFIIDAHLSNILSEVTAVFTDKDANVRLAAVQLLQFLAPKIRAEQISPFFPLVSAHLSSAMTHITEGIQEDSLKVLDILLEQYPALITGRSSILLKNFVELISHQQLSKGLINRDRSQSWILSVNPNRRLTSQQWRLKVLVRLSKFLQALADGSSRLRESEGLQEQKENPHATSNSIFINWKEHANDQQHIQVYENGGSQPNVSSQFRLRYLVGGLSGVDEGLSSTENLKGFIEIIIPLLIECWVEAVPPQLATPVGNGIEREPLQVMQQVLNIISLLWKLSKQQDETHKLESWLRKNYLIDFKHHFMSRFPYVLKEITKHKRKEPNKSIKHCTVLSNNIDHLLLNLTLSDIMVSLANASTLQKDCSWIEMIRKFVTETLEDGSRLNSKQLNRLLGVSWRLMQIQPNREDTETLIKAVYTLYQQRGLILPVRTLLLKFFSKIYQTEELRSCRFRYRSKVLSRWLAGLPLQLAHLGSRNPELSTQLIDIIHTAAARANKELLKSLQATALRIYDPQEGAVVVLPADSQQRLVQLVYFLPSLPADLLSRLSRCCIMGRLSSSLAAMLIGILHMRSSFSGWKYSAKDWLMSDVDYFSFLFSTLTGFSKEELTWLQSLRGVPHVIQTQLSPVLLYLTDLDQFLHHWDVTEAVFHSLLVIPARSQNFDILQSAISKHLVGLTVIPDSTAGCVFGVICKLLDHTCVVSETLLPFLASCCYSLLYFLLTIEKGEAEHLRKRDKLWGVCVSILALLPRVLRLMLQSLRVNRVGPEELPVVGQLLRLLLQHAPLRTHMLTNAILVQQIIKNITTLKSGSVQEQWLTDLHYCFNVYITGHPQGPSALATVY | binds
8 | WDR18 (protein, UniProt Q9BV38 1-432) MAAPMEVAVCTDSAAPMWSCIVWELHSGANLLTYRGGQAGPRGLALLNGEYLLAAQLGKNYISAWELQRKDQLQQKIMCPGPVTCLTASPNGLYVLAGVAESIHLWEVSTGNLLVILSRHYQDVSCLQFTGDSSHFISGGKDCLVLVWSLCSVLQADPSRIPAPRHVWSHHALPITDLHCGFGGPLARVATSSLDQTVKLWEVSSGELLLSVLFDVSIMAVTMDLAEHHMFCGGSEGSIFQVDLFTWPGQRERSFHPEQDAGKVFKGHRNQVTCLSVSTDGSVLLSGSHDETVRLWDVQSKQCIRTVALKGPVTNAAILLAPVSMLSSDFRPSLPLPHFNKHLLGAEHGDEPRHGGLTLRLGLHQQGSEPSYLDRTEQLQAVLCSTMEKSVLGGQDQLRVRVTELEDEVRNLRKINRDLFDFSTRFITRPAK | binds

The next lines start with the values.

Row | binding | Molecule
9 | binds | EHMT1 (from UniProt Q9H9B1 1-1298)
10 | binds | WIZ (from UniProt O95785 1-1651)
11 | binds | RCOR2 (from UniProt Q8IZ40 1-523)
12 | binds | PELP1 (from UniProt Q8IZL8 1-1130)
13 | binds | ZMYM4 (from UniProt Q5VZL5 1-1548)
14 | binds | ZNF644 (protein, UniProt Q9H582 1-1327) MRSFLQQDVNKTKSRLNVLNGLANNMDDLKINTDITGAKEELLDDNNFISDKESGVHKPKDCQTSFQKNNTLTLPEELSKDKSENALSGGQSSLFIHAGAPTVSSENFILPKGAAVNGPVSHSSLTKTSNMNKGSVSLTTGQPVDQPTTESCSTLKVAADLQLSTPQKASQHQVLFLLSDVAHAKNPTHSNKKLPTSASVGCDIQNSVGSNIKSDGTLINQVEVGEDGEDLLVKDDCVNTVTGISSGTDGFRSENDTNWDPQKEFIQFLMTNEETVDKAPPHSKIGLEKKRKRKMDVSKITRYTEDCFSDSNCVPNKSKMQEVDFLEQNEELQAVDSQKYALSKVKPESTDEDLESVDAFQHLIYNPDKCGEESSPVHTSTFLSNTLKKKCEESDSESPATFSTEEPSFYPCTKCNVNFREKKHLHRHMMYHLDGNSHFRHLNVPRPYACRECGRTFRDRNSLLKHMIIHQERRQKLMEEIRELKELQDEGRSARLQCPQCVFGTNCPKTFVQHAKTHEKDKRYYCCEECNFMAVTENELECHRGIAHGAVVKCPMVTSDIAQRKTQKKTFMKDSVVGSSKKSATYICKMCPFTTSAKSVLKKHTEYLHSSSCVDSFGSPLGLDKRKNDILEEPVDSDSTKTLTKQQSTTFPKNSALKQDVKRTFGSTSQSSSFSKIHKRPHRIQKARKSIAQSGVNMCNQNSSPHKNVTIKSSVDQKPKYFHQAAKEKSNAKANSHYLYRHKYENYRMIKKSGESYPVHFKKEEASSLNSLHLFSSSSNSHNNFISDPHKPDAKRPESFKDHRRVAVKRVIKESKKESSVGGEDLDSYPDFLHKMTVVVLQKLNSAEKKDSYETEDESSWDNVELGDYTTQAIEDETYSDINQEHVNLFPLFKSKVEGQEPGENATLSYDQNDGFYFEYYEDTGSNNFLHEIHDPQHLETADASLSKHSSVFHWTDLSLEKKSCPYCPATFETGVGLSNHVRGHLHRAGLSYEARHVVSPEQIATSDKMQHFKRTGTGTPVKRVRKAIEKSETTSEHTCQLCGGWFDTKIGLSNHVRGHLKRLGKTKWDAHKSPICVLNEMMQNEEKYEKILKALNSRRIIPRPFVAQKLASSDDFISQNVIPLEAYRNGLKTEALSVSASEEEGLNFLNEYDETKPELPSGKKNQSLTLIELLKNKRMGEERNSAISPQKIHNQTARKRFVQKCVLPLNEDSPLMYQPQKMDLTMHSALDCKQKKSRSRSGSKKKMLTLPHGADEVYILRCRFCGLVFRGPLSVQEDWIKHLQRHIVNANLPRTGAGMVEVTSLLKKPASITETSFSLLMAEAAS
15 | binds | LAS1L (protein, UniProt Q9Y4W2 1-734) MSWESGAGPGLGSQGMDLVWSAWYGKCVKGKGSLPLSAHGIVVAWLSRAEWDQVTVYLFCDDHKLQRYALNRITVWRSRSGNELPLAVASTADLIRCKLLDVTGGLGTDELRLLYGMALVRFVNLISERKTKFAKVPLKCLAQEVNIPDWIVDLRHELTHKKMPHINDCRRGCYFVLDWLQKTYWCRQLENSLRETWELEEFREGIEEEDQEEDKNIVVDDITEQKPEPQDDGKSTESDVKADGDSKGSEEVDSHCKKALSHKELYERARELLVSYEEEQFTVLEKFRYLPKAIKAWNNPSPRVECVLAELKGVTCENREAVLDAFLDDGFLVPTFEQLAALQIEYEDGQTEVQRGEGTDPKSHKNVDLNDVLVPKPFSQFWQPLLRGLHSQNFTQALLERMLSELPALGISGIRPTYILRWTVELIVANTKTGRNARRFSAGQWEARRGWRLFNCSASLDWPRMVESCLGSPCWASPQLLRIIFKAMGQGLPDEEQEKLLRICSIYTQSGENSLVQEGSEASPIGKSPYTLDSLYWSVKPASSSFGSEAKAQQQEEQGSVNDVKEEEKEEKEVLPDQVEEEEENDDQEEEEEDEDDEDDEEEDRMEVGPFSTGQESPTAENARLLAQKRGALQGSAWQVSSEDVRWDTFPLGRMPGQTEDPAELMLENYDTMYLLDQPVLEQRLEPSTCKTDTLGLSCGVGSGNCSNSSSSNFEGLLWSQGQLHGLKTGLQLF

No constants are given. Whether binding was seen depends on the method and setting. In cells and extracts the contact can be indirect. Here binding means that the protein was enriched with, or labelled near, the bait; the list need not be complete. Tags and fused reporters may be left off the sequences shown.
